# Measured values published in the supplement of paper PMC4604168 (melanoma cell lines).
# The list shows a part of the results. Single values are uncertain, as repeats are few or missing.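 Imaging used 1,536-well plates; nuclei positive for cleaved PARP by antibody were divided by total DNA-stained nuclei to yield the apoptosis fraction. Doses for screening kept most cells viable, and cell lines differ markedly in resting and induced cleaved-PARP levels.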
# Tested on: WM3526
# Experiment: cleaved PARP positive nuclei fraction relative to DMSO control; melanoma cells; higher = more apoptosis
# Settings: library dose: low library concentration; 72 h
row,SMILES,cleaved PARP positive nuclei fraction [%]
1,"Cn1c(=O)n(-c2ccc(C(C)(C)C#N)cc2)c2c3cc(-c4cnc5ccccc5c4)ccc3ncc21 + OCCn1cc(-c2cnc3nnn(Cc4ccc5ncccc5c4)c3n2)cn1 [PF04217903] (first compound 0.004 µM, partner dose 1 µM)",38.1
2,"Cn1c(=O)n(-c2ccc(C(C)(C)C#N)cc2)c2c3cc(-c4cnc5ccccc5c4)ccc3ncc21 + c1cc(-c2cnn3cc(-c4ccc(OCCN5CCCCC5)cc4)cnc23)ccn1 [Dorsomorphin] (first compound 0.004 µM, partner dose 0.4 µM)",67.2
3,"O=C(O)c1ccc2c(c1)nc(Nc1cccc(Cl)c1)c1ccncc12 + COc1ccc(-c2ccc3c(N4CCOCC4)nc(N4C[C@@H](C)O[C@@H](C)C4)nc3n2)cc1CO [KU0063794] (first compound 0.4 µM, partner dose 0.02 µM)",79.4

# Tested on: WM3619
# Experiment: as above
# Settings: library dose: low library concentration; 72 h
row,SMILES,cleaved PARP positive nuclei fraction [%]
1,"O=C(O)[C@@H]1[O][Sb](=[O])([O][Sb]2(=[O])[O][C@H]([C@H](O)CO)[C@H](O)[C@H](C(=O)O)[O]2)[O][C@H]([C@H](O)CO)[C@@H]1O (stereo not given in full) [stibogluconate] + OCCn1cc(-c2cnc3nnn(Cc4ccc5ncccc5c4)c3n2)cn1 [PF04217903] (first compound 2 µM, partner dose 1 µM)",105
2,"C[C@@H](Oc1cc(-c2cnn(C3CCNCC3)c2)cnc1N)c1c(Cl)ccc(F)c1Cl [Crizotinib] + Oc1cc(-c2nc(-c3ccccc3)[nH]c2-c2ccncc2)ccc1Cl [L779450] (first compound 0.2 µM, partner dose 0.2 µM)",95.9
3,"C[C@@H](Oc1cc(-c2cnn(C3CCNCC3)c2)cnc1N)c1c(Cl)ccc(F)c1Cl [Crizotinib] + CCCCCCCCCCCC1=C(O)C(=O)C=C(O)C1=O [Embelin] (first compound 0.2 µM, partner dose 1.2 µM)",91.5
4,"Nc1ncn([C@H]2C[C@H](O)[C@@H](CO)O2)c(=O)n1 [decitabine] + O=C(Nc1ccccc1)c1cc([N+](=O)[O-])ccc1Cl [GW9662] (first compound 0.1 µM, partner dose 2 µM)",83.7
5,"C[C@@H](Oc1cc(-c2cnn(C3CCNCC3)c2)cnc1N)c1c(Cl)ccc(F)c1Cl [Crizotinib] + O=c1cc(-c2cccc3c2Sc2ccccc2S3)oc(N2CCOCC2)c1 [KU55933] (first compound 0.2 µM, partner dose 1 µM)",81
6,"CS(=O)(=O)CCNCc1ccc(-c2ccc3ncnc(Nc4ccc(OCc5cccc(F)c5)c(Cl)c4)c3c2)o1 [lapatinib] + OCCn1cc(-c2cnc3nnn(Cc4ccc5ncccc5c4)c3n2)cn1 [PF04217903] (first compound 0.8 µM, partner dose 1 µM)",83.7
7,"Cc1cc(Nc2cc(N3CCN(C)CC3)nc(/C=C/c3ccccc3)n2)n[nH]1 + N#Cc1c(O)c2c(-c3ccc(-c4ccccc4O)cc3)csc2[nH]c1=O [A769662] (first compound 0.04 µM, partner dose 2 µM)",79.4
8,"CCCS(=O)(=O)Nc1ccc(F)c(C(=O)c2c[nH]c3ncc(Cl)cc23)c1F + COc1cc2ncnc(Nc3ccc(Oc4ccccc4)cc3)c2cc1OC [SrcI1] (first compound 0.08 µM, partner dose 2 µM)",68.2
9,"Nc1nc(F)nc2c1ncn2[C@@H]1O[C@H](CO)[C@@H](O)[C@@H]1O [fludarabine] + CO[C@@H]1[C@H](N(C)C(=O)c2ccccc2)C[C@H]2O[C@]1(C)n1c3ccccc3c3c4c(c5c6ccccc6n2c5c31)C(=O)NC4 [Midostaurin] (first compound 0.2 µM, partner dose 0.08 µM)",84.6
10,"Nc1ncn([C@H]2C[C@H](O)[C@@H](CO)O2)c(=O)n1 [decitabine] + O=C(O)c1ccc(-c2c[nH]c3ncc(-c4ccccc4)cc23)cc1C1CCCC1 [GSK650394] (first compound 0.1 µM, partner dose 0.16 µM)",82.1
11,"CN1CCN(c2ccc3nc(-c4c(N)c5c(F)cccc5[nH]c4=O)[nH]c3c2)CC1 [Dovitinib] + Oc1cc(-c2nc(-c3ccccc3)[nH]c2-c2ccncc2)ccc1Cl [L779450] (first compound 0.1 µM, partner dose 0.2 µM)",99
12,"CS(=O)(=O)CCNCc1ccc(-c2ccc3ncnc(Nc4ccc(OCc5cccc(F)c5)c(Cl)c4)c3c2)o1 [lapatinib] + O=S(=O)(c1ccccc1)N(CC(F)(F)F)c1ccc(C(O)(C(F)(F)F)C(F)(F)F)cc1 [T0901317] (first compound 0.8 µM, partner dose 1.4 µM)",103
13,"CNC(=O)c1cc(Oc2ccc(NC(=O)Nc3ccc(Cl)c(C(F)(F)F)c3)cc2)ccn1 [sorafenib] + O=C(O)c1ccc(-c2c[nH]c3ncc(-c4ccccc4)cc23)cc1C1CCCC1 [GSK650394] (first compound 0.4 µM, partner dose 0.16 µM)",86
14,"CC(C)C[C@H](NC(=O)[C@H](Cc1ccccc1)NC(=O)c1cnccn1)B(O)O [Bortezomib] + NC(=O)Nc1cc(-c2cccc(F)c2)sc1C(=O)N[C@H]1CCCNC1 [AZD7762] (first compound 0.001 µM, partner dose 0.02 µM)",387
15,"Nc1nc(F)nc2c1ncn2[C@@H]1O[C@H](CO)[C@@H](O)[C@@H]1O [fludarabine] + NCC(=O)Nc1ccc(-n2nc(C(F)(F)F)cc2-c2ccc3c(ccc4ccccc43)c2)cc1 [OSU03012] (first compound 0.2 µM, partner dose 1 µM)",91.3
16,"CC(C)C[C@H](NC(=O)[C@H](Cc1ccccc1)NC(=O)c1cnccn1)B(O)O [Bortezomib] + COc1cc2c(Oc3ccc4[nH]c(C)cc4c3F)ncnc2cc1OCCCN1CCCC1 [cediranib] (first compound 0.001 µM, partner dose 0.4 µM)",318
17,"CC(C)C[C@H](NC(=O)[C@H](Cc1ccccc1)NC(=O)c1cnccn1)B(O)O [Bortezomib] + C[C@@H]1CCN(C(=O)CC#N)C[C@@H]1N(C)c1ncnc2[nH]ccc12 [CP690550] (first compound 0.001 µM, partner dose 1 µM)",388
18,"Nc1ccn([C@@H]2O[C@H](CO)[C@@H](O)C2(F)F)c(=O)n1 [gemcitabine] + C=CCn1c(=O)c2cnc(Nc3ccc(N4CCN(C)CC4)cc3)nc2n1-c1cccc(C(C)(C)O)n1 [MK1775] (first compound 0.0004 µM, partner dose 0.02 µM)",160
19,"CNC(=O)c1cc(Oc2ccc(NC(=O)Nc3ccc(Cl)c(C(F)(F)F)c3)cc2)ccn1 [sorafenib] + COc1cc2c(Oc3ccc4[nH]c(C)cc4c3F)ncnc2cc1OCCCN1CCCC1 [cediranib] (first compound 0.4 µM, partner dose 0.4 µM)",90.2
20,"CNC(=O)c1cc(Oc2ccc(NC(=O)Nc3ccc(Cl)c(C(F)(F)F)c3)cc2)ccn1 [sorafenib] + Cc1ccc(NC(=O)c2cccc(N(C)C)c2)cc1NC(=O)c1ccc(O)cc1 [ZM336372] (first compound 0.4 µM, partner dose 2 µM)",89.2
21,"C[C@@H](Oc1cc(-c2cnn(C3CCNCC3)c2)cnc1N)c1c(Cl)ccc(F)c1Cl [Crizotinib] + CCN(CC)CCCCNc1ncc2cc(-c3cc(OC)cc(OC)c3)c(NC(=O)NC(C)(C)C)nc2n1 [PD173074] (first compound 0.2 µM, partner dose 0.1 µM)",100
22,"Nc1ncn([C@H]2C[C@H](O)[C@@H](CO)O2)c(=O)n1 [decitabine] + O=c1cc(-c2cccc3c2Sc2ccccc2S3)oc(N2CCOCC2)c1 [KU55933] (first compound 0.1 µM, partner dose 1 µM)",82.2
23,"O=C(O)c1ccc2c(c1)nc(Nc1cccc(Cl)c1)c1ccncc12 + O=C(O)c1ccc(-c2c[nH]c3ncc(-c4ccccc4)cc23)cc1C1CCCC1 [GSK650394] (first compound 0.4 µM, partner dose 0.16 µM)",80
24,"Cc1cc(Nc2cc(N3CCN(C)CC3)nc(/C=C/c3ccccc3)n2)n[nH]1 + C=CCn1c(=O)c2cnc(Nc3ccc(N4CCN(C)CC4)cc3)nc2n1-c1cccc(C(C)(C)O)n1 [MK1775] (first compound 0.04 µM, partner dose 0.02 µM)",125
25,"Nc1ccn([C@@H]2O[C@H](CO)[C@@H](O)C2(F)F)c(=O)n1 [gemcitabine] + O=C(Nc1cccc(Cl)c1)Nc1ncc(CCNc2ncnc3ccsc23)s1 [SNS314] (first compound 0.0004 µM, partner dose 0.0008 µM)",115
26,"C[C@@H](Oc1cc(-c2cnn(C3CCNCC3)c2)cnc1N)c1c(Cl)ccc(F)c1Cl [Crizotinib] + CO[C@@H]1[C@H](N(C)C(=O)c2ccccc2)C[C@H]2O[C@]1(C)n1c3ccccc3c3c4c(c5c6ccccc6n2c5c31)C(=O)NC4 [Midostaurin] (first compound 0.2 µM, partner dose 0.08 µM)",217
27,"CC(C)C[C@H](NC(=O)[C@H](Cc1ccccc1)NC(=O)c1cnccn1)B(O)O [Bortezomib] + COc1ccc2c(c1)CCC1C2CCC2(C)C(NCCCCCCN3C(=O)C=CC3=O)CCC12 [U73122] (first compound 0.001 µM, partner dose 0.4 µM)",501

# A different layout for part of the listing above:
row | SMILES | cleaved PARP positive nuclei fraction [%]
11 | CN1CCN(c2ccc3nc(-c4c(N)c5c(F)cccc5[nH]c4=O)[nH]c3c2)CC1 [Dovitinib] + Oc1cc(-c2nc(-c3ccccc3)[nH]c2-c2ccncc2)ccc1Cl [L779450] (first compound 0.1 µM, partner dose 0.2 µM) | 99
12 | CS(=O)(=O)CCNCc1ccc(-c2ccc3ncnc(Nc4ccc(OCc5cccc(F)c5)c(Cl)c4)c3c2)o1 [lapatinib] + O=S(=O)(c1ccccc1)N(CC(F)(F)F)c1ccc(C(O)(C(F)(F)F)C(F)(F)F)cc1 [T0901317] (first compound 0.8 µM, partner dose 1.4 µM) | 103
13 | CNC(=O)c1cc(Oc2ccc(NC(=O)Nc3ccc(Cl)c(C(F)(F)F)c3)cc2)ccn1 [sorafenib] + O=C(O)c1ccc(-c2c[nH]c3ncc(-c4ccccc4)cc23)cc1C1CCCC1 [GSK650394] (first compound 0.4 µM, partner dose 0.16 µM) | 86
14 | CC(C)C[C@H](NC(=O)[C@H](Cc1ccccc1)NC(=O)c1cnccn1)B(O)O [Bortezomib] + NC(=O)Nc1cc(-c2cccc(F)c2)sc1C(=O)N[C@H]1CCCNC1 [AZD7762] (first compound 0.001 µM, partner dose 0.02 µM) | 387
15 | Nc1nc(F)nc2c1ncn2[C@@H]1O[C@H](CO)[C@@H](O)[C@@H]1O [fludarabine] + NCC(=O)Nc1ccc(-n2nc(C(F)(F)F)cc2-c2ccc3c(ccc4ccccc43)c2)cc1 [OSU03012] (first compound 0.2 µM, partner dose 1 µM) | 91.3
16 | CC(C)C[C@H](NC(=O)[C@H](Cc1ccccc1)NC(=O)c1cnccn1)B(O)O [Bortezomib] + COc1cc2c(Oc3ccc4[nH]c(C)cc4c3F)ncnc2cc1OCCCN1CCCC1 [cediranib] (first compound 0.001 µM, partner dose 0.4 µM) | 318
17 | CC(C)C[C@H](NC(=O)[C@H](Cc1ccccc1)NC(=O)c1cnccn1)B(O)O [Bortezomib] + C[C@@H]1CCN(C(=O)CC#N)C[C@@H]1N(C)c1ncnc2[nH]ccc12 [CP690550] (first compound 0.001 µM, partner dose 1 µM) | 388
18 | Nc1ccn([C@@H]2O[C@H](CO)[C@@H](O)C2(F)F)c(=O)n1 [gemcitabine] + C=CCn1c(=O)c2cnc(Nc3ccc(N4CCN(C)CC4)cc3)nc2n1-c1cccc(C(C)(C)O)n1 [MK1775] (first compound 0.0004 µM, partner dose 0.02 µM) | 160
